Experiment: general procedure: Fmoc solid-phase peptide synthesis; Rink Amide MBHA Resin (Novabiochem, 200–400 mesh, 0.60 mmol g^–1 loading); PyBOP/DIPEA
Details: whole synthesis; for isolated yield: scale of the general procedure 0.15 mmol

Q: Which results are given for azidopeptide 13?
A: isolated mass: 24 mg; isolated yield: 55%

Q: Which isolated mass does the source give for Tat-GYKC peptide here?
A: 20 mg

Q: What about the isolated yield of the same substance?
A: 33%

Q: For Cys-Tat peptide, which isolated mass is on record?
A: 24 mg

Q: And the isolated yield?
A: 40%

Source: article PMC5166568 (Organic & Biomolecular Chemistry, 2016)
